Test results taken from the supplement of paper PMC12578635.
± gives the standard deviation of the averaged measurements. This is one part of the list. Most values come without repeats; read them as rough.

Each molecule was assayed on RAW 264.7 macrophages infected with S. aureus JE2-lux (assay: host macrophage viability (CellTiter-Fluor) relative to DMSO vehicle; higher = more viable host cells). Details: 10 µM; treatment time 4 h; gentamicin 50 µg/ml.

Compound	host macrophage viability
O=C(CC1CCN(C(=O)c2cc3cc(Cl)ccc3[nH]2)CC1)NCc1ccccc1Cl	81.7%
COc1ccc(Cn2c(=O)c3cccnc3n(-c3ccccc3)c2=O)cc1	118%
COc1ccc(C(=O)N2CCN(c3nc(C)c(C)c(=O)[nH]3)CC2)cc1	89.9%
COc1ccc(-c2nsc3c(SCC(C)=O)ncnc23)cc1	145%
CCOc1ccc(CC(=O)Oc2cc(C)[nH]c(=O)c2[N+](=O)[O-])cc1	117%
COc1ccc(Br)cc1CNC(=O)c1nccn1Cc1ccccc1C	123%
Cc1ccc([N+](=O)[O-])cc1N1C(=O)CC(Nc2ccc(N3CCOCC3)cc2)C1=O (configuration not stated)	91.2%
Cc1cc2c(=O)n(CC(=O)NC(c3cccs3)C(C)C)cnc2s1 (configuration not stated)	109%
C#CCn1/c(=N/C(=O)CN2C(=O)CCC2=O)sc2c3ccccc3ccc21	111%
COc1ccc(Nc2nc(C)c3nc(C)n(-c4ccc(OC)c(Cl)c4)c3n2)cc1Cl	98.9%
Cc1ccc(C)c(C(=O)Nc2nc3c(s2)COc2ccccc2-3)c1	133%
CN1C(=O)c2cccc(NC(=O)c3ccc(Br)s3)c2C1=O	130%
Cc1ccc(-c2nc(N)n(C(=O)C(c3ccccc3)c3ccccc3)n2)cc1C	102%
Cc1ccc(S(=O)(=O)N(C)c2cncc(C(=O)NC(C)CCc3ccccc3)c2)cc1 (configuration not stated)	101%
Cc1cnc(NC(=O)CSc2ncnc3c(-c4ccc(F)cc4)nsc23)s1	111%
COc1ccc(Cc2nc3c4c(C)c(C)n(-c5ccc(C)cc5)c4ncn3n2)cc1	125%
Cc1cc(N2CCN(C(=O)c3ccc(=O)n(C)c3)CC2)nc(C)n1	105%
O=C(CN1C(=O)c2ccccc2C1=O)Nc1nc2c(s1)CSc1ccccc1-2	124%
CCOC(=O)CCc1c(C)[nH]c2c(C(=O)Nc3ccccc3C)cnn2c1=O	127%
Clc1cccc(NCc2nnc3n2CCCCC3)c1	96.1%
CCC(SC1=Nc2ccccc2C2=NC(C)C(=O)N12)C(=O)Nc1cc(F)ccc1F (configuration not stated)	115%
CCc1cc(Sc2nnc(NC(C)=O)s2)n2ncnc2n1	79.2%
CNC(=O)c1ccsc1NC(=O)CN1C(=O)CCC1=O	117%
COc1ccccc1NC(=O)C1=C(C)NC(=O)NC1c1ccc(Cl)cc1Cl (configuration not stated)	114%
COc1ccc(CCNc2nc(C(F)(F)F)nc3c(C)cc(C)cc23)cc1OC	119%
CCOC(=O)c1sc2nc(Cc3ccc(OC)c(OC)c3)[nH]c(=O)c2c1C	123%

As entered above:
Cc1ccc(C)c(C(=O)Nc2nc3c(s2)COc2ccccc2-3)c1 | host macrophage viability: 133%
CCc1cc(Sc2nnc(NC(C)=O)s2)n2ncnc2n1 | host macrophage viability: 79.2%
CCOC(=O)CCc1c(C)[nH]c2c(C(=O)Nc3ccccc3C)cnn2c1=O | host macrophage viability: 127%
CCOc1ccc(CC(=O)Oc2cc(C)[nH]c(=O)c2[N+](=O)[O-])cc1 | host macrophage viability: 117%

Next results follow:

Compound	host macrophage viability
O=C(NCc1ccco1)c1ccc2c(c1)C(=O)c1ccccc1-2	115%
Cc1cc(NC(=O)CSC2=NS(=O)(=O)c3cc(Cl)ccc3N2)no1	112%
CNc1nc2c(c(=O)n(C)c(=O)n2C)n1CC(O)COc1ccccc1C (configuration not stated)	130%
COc1ccccc1N1CCN(c2nccn3nc(-c4ccc(C)c(C)c4)cc23)CC1	94.5%
CCOCCOC(=O)c1ccc2c(c1)N(Cc1ccncc1)C(=O)c1ccccc1S2	117%
COC(=O)CSC1=C(C#N)C(c2ccccc2)C(C(=O)Nc2ccccc2OC)=C(C)N1 (configuration not stated)	135%
O=C1CCc2cc(S(=O)(=O)Nc3ccccc3N3CCOCC3)ccc2N1	110%
Cc1ccc(-c2cnnc(-n3nc(C)c4c3NC(=O)CC4c3ccc(C)c(C)c3)n2)cc1 (configuration not stated)	106%
Cc1ccc(Cn2c(Sc3nnc(C)s3)nc3c2c(=O)[nH]c(=O)n3C)cc1	111%
CCOc1ccccc1/C=N/NC(=O)CNC(=O)c1cccs1	124%
Cc1nc(-c2ccccc2)c(CC(=O)NC(c2ccccc2)c2cccnc2)s1 (configuration not stated)	116%
Cc1cc(=O)n2nc(CN(c3ccc(Cl)cc3)S(=O)(=O)c3ccccc3)nc2[nH]1	105%
COC(=O)COc1cccc2c(=O)n(CC(=O)Nc3ccc([N+](=O)[O-])cc3)ccc12	116%
O=C(Nc1c(C(=O)Nc2ccccc2F)oc2ccccc12)c1ccc(Br)o1	115 ± 2.4%
CCOc1ccc2ccccc2c1C(=O)Nn1cnc2c(cnn2-c2ccccc2)c1=O	118%
COC(=O)c1ccccc1NC(=O)CSc1nnc(CSc2nc(C)cc(C)n2)o1	113%
Cc1cc(C)c2c(n1)sc1c(=O)n(-c3cccc(C(=O)Nc4ccc(C(C)C)cc4)c3)cnc12	139%
Clc1ccccc1CCNc1ncnc2oc3c(c12)CCCC3	125%
CCNc1nc(NCC)n2c(SCC(=O)Nc3ccc([N+](=O)[O-])cc3)nnc2n1	121%
COc1ccc(C2C(C#N)=C(SC)NC3=C2C(=O)CC(C)(C)C3)cc1 (configuration not stated)	119%
CCN1CCN(c2nc3ncn(CC(=O)N4CCN(c5ccc(F)cc5)CC4)c(=O)c3s2)CC1	113%
O=C(Cn1c(=O)n2nc(-c3ccc(F)cc3)nc2c2ccccc21)N1CCN(c2ccc(F)cc2)CC1	119%
COC(=O)c1ccc(NC(=O)CSc2nc(-c3ccccc3C)ns2)cc1	113 ± 12%
Cc1ccnc(SCc2cc(=O)c(OC(=O)c3c(F)cccc3Cl)co2)n1	103%
Cc1cc(OCC(=O)Nc2ccc3c(c2)nc2n3CCN(C(C)C)C2)ccc1Cl	116%
Cc1sc(NC(=O)C2(C)CCCO2)nc1-c1cc2ccccc2oc1=O (configuration not stated)	107%
